According to PubChem BioAssay AID1671190 (National Center for Advancing Translational Sciences (NCATS), 2021):
The campaign covered roughly 580,000 compounds. About 6,100 (1.1%) were called active. This list was built around the results that the source calls inconclusive (neither active nor inactive); the mix of calls is not that of the screen. Calls follow the shape of the dose curve; as a rule, active = well fitted inhibition curve with a large enough effect; inconclusive = small, poorly fitted or top-dose-only effect, or another doubt; inactive = no such curve, though single readings can be large or run the other way. Potencies of inconclusive entries are doubtful fits and often do not repeat.

Amino acid sequences for entries named in this document (tags omitted).
UniProt P18054, whole entry, looked up: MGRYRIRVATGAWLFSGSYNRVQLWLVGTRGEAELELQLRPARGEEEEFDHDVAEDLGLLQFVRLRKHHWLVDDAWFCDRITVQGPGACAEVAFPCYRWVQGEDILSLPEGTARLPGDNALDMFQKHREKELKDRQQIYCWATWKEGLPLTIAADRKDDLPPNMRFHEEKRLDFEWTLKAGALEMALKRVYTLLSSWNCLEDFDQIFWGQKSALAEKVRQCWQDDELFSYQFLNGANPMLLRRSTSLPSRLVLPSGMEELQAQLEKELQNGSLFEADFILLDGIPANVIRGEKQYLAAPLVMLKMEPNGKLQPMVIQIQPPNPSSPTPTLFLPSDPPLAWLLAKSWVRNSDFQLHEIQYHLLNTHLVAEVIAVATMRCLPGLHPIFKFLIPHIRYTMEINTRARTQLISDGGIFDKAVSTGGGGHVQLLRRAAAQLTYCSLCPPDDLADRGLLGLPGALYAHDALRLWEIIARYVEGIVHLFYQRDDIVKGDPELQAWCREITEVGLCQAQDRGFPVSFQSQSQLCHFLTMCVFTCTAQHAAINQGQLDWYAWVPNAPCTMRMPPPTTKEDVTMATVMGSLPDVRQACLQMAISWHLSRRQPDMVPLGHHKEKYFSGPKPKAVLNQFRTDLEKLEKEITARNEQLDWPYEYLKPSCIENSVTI

target: Polyunsaturated fatty acid lipoxygenase ALOX12 (Homo sapiens) (UniProt P18054); assay: Primary qHTS assay for inhibitors of human arachidonate 12S-lipoxygenase (ALOX12): Round 2; conditions: purified 12hLO, xylenol orange hydroperoxide absorbance; activity change, negative = inhibition: at 108 µM (top of the series) unless noted
Method in brief: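 Purified human 12hLO (150 nM final) in 25 mM Hepes, 0.01% Triton X-100, pH 7.0 was preincubated 15 min at room temperature with compound. Then 40 uM arachidonic acid was added, 30 min. Hydroperoxide was read by Fe-XO absorbance ratio 573/405 nm.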
% is scaled to controls: 0 for no effect and ±100 for the full control effect; potency is read from the fitted curve at half-maximal effect.

| SMILES | Potency | activity change, negative = inhibition |
| --- | --- | --- |
| O=C(COc1ccccc1)N/N=C/c1ccc([N+](=O)[O-])o1 | inconclusive: 56.2 µM [inhibitor, partial curve, poor fit] |  |
| OCc1ccc(CN2C[C@H](O)C[C@H]2c2nc(-c3ccc4c(c3)OCO4)no2)o1 | inconclusive: 39.8 µM [inhibitor, partial curve] |  |
| COc1ccc(C2=CC(=O)C[C@H](c3ccc4c(c3)OCO4)C2)cn1 | inconclusive: 35.5 µM [inhibitor, partial curve, poor fit] |  |
| Cc1cnc(C(=O)OCC(=O)Nc2oc(-c3ccccc3)c(-c3ccccc3)c2C#N)cn1 | inconclusive: 39.8 µM [inhibitor, partial curve, poor fit] |  |
| COc1ccc(C2=NN3C(=O)c4ccccc4C3C2)cc1 (configuration not stated) | inactive |  |
| C(=C\c1ccccc1)/CN1CCN(C(c2cc3ccccc3o2)c2nnnn2C2CCCCC2)CC1 (configuration not stated) | inconclusive: 6.31 µM [inhibitor, full curve, poor fit] |  |
| CCOc1ccc(Nc2cc(C(=O)N3CCOCC3)c3ccccc3n2)cc1 | inconclusive: 39.8 µM [inhibitor, partial curve, poor fit] |  |
| O=C(Nc1cccc(-c2nc3ccccc3o2)c1)c1cccs1 | inactive |  |
| CN(C)S(=O)(=O)c1ccc(Cl)c(C(=O)NNC(=O)Cn2ccc(C(F)(F)F)n2)c1 | inactive |  |
| O=C(/C=C/c1cccc(F)c1)NNC(=O)C1CCCCC1 | inactive |  |
| Cc1ccc(CSc2nnc(-c3cccc4ccccc34)o2)cc1 | inconclusive: 100 µM [inhibitor, single point] |  |
| COc1cc(/C=C(/C#N)S(=O)(=O)c2ccc(Cl)cc2)cc(OC)c1 | inconclusive: 44.7 µM [inhibitor, partial curve, poor fit] |  |
| Cc1ccc(-c2noc(CN3C(C)CCCC3C)n2)cc1 (configuration not stated) | inconclusive: 79.4 µM [inhibitor, single point] |  |
| CC1=CN2C(=N)/C(=C/c3ccc([N+](=O)[O-])o3)C(=O)N=C2S1 | active: 44.7 µM |  |
| S=C1NC[C@H](CC2CCCCC2)N1CC1CCCCC1 | inconclusive: 50.1 µM [inhibitor, partial curve, poor fit] |  |
| CN(CC(=O)Nc1ccc(Cl)c(Cl)c1)C(=O)c1ccccc1SCC(=O)N1CCCC1 | inactive |  |
| O=C1NC(c2cccc(OCc3ccccc3)c2)Nc2ccccc21 (configuration not stated) | inconclusive: 5.01 µM [inhibitor, full curve, poor fit] |  |
| COc1cccc(NC(=S)N2CCc3cc(OC)c(OC)cc3C2)c1 | inconclusive: 126 µM [inhibitor, partial curve, poor fit] |  |
| CCOc1ccc(-n2c(Cc3cc(=O)[nH]c(=O)[nH]3)nnc2SCC)cc1 | inconclusive: 15.8 µM [inhibitor, full curve] |  |
| Cc1cc2ccccn2c1C(=O)c1ccc([N+](=O)[O-])cc1[N+](=O)[O-] | inactive |  |
| O=C(NCCN1CCN(C(=O)c2cccc(Br)c2)CC1)C(=O)Nc1ccc(Br)cc1 | inactive |  |
| C=CCC1(O)C(=O)N2C(=C1C(=O)N1CCOCC1)c1ccccc1CC2(C)C (configuration not stated) | inactive |  |
| COc1ccc(C)cc1S(=O)(=O)N1CCN(S(=O)(=O)c2cc(C)ccc2OC)CC1 | inactive |  |

| SMILES | Potency | activity change, negative = inhibition |
| --- | --- | --- |
| COc1cc(OC)c(CN2CCOc3ccc(CN4CCC(O)CC4)cc3C2)c(OC)c1 | inconclusive: 100 µM [inhibitor, single point] |  |
| Cc1ccc(S(=O)(=O)N2CC3(C)CN(S(=O)(=O)c4ccc(C)cc4)CC(C)(C2)C3=O)cc1 | inactive |  |
| COc1cc(/C=N/NC(=S)NCc2ccco2)cc(OC)c1OC | inconclusive: 50.1 µM [inhibitor, partial curve, poor fit] |  |
| Cc1cccc(-c2nc(C#N)c(NCC(C)C)o2)c1 | inactive |  |
| Cc1ccc(S(=O)(=O)CC(=O)Nc2sc3c(c2C#N)CCCCC3)cc1 | inconclusive: 50.1 µM [inhibitor, partial curve] |  |
| O=C(NNc1ccccc1C(F)(F)F)c1sccc1Br | active: 39.8 µM |  |
| CS(=O)(=O)c1ccc(C(=O)CSc2ccc(F)cc2)cc1 | inconclusive: 89.1 µM [inhibitor, partial curve, poor fit] |  |
| COc1ccc(C(=O)Oc2cc(C)[nH]c(=O)c2[N+](=O)[O-])cc1 | inconclusive: 2.51 µM [inhibitor, full curve, poor fit] |  |
| CCCCCOc1ccc(/C=C/C(=O)c2ccc(O)cc2)cc1OC | inconclusive: 44.7 µM [inhibitor, partial curve, poor fit] |  |
| O=C(Nc1ccc(Br)cn1)c1cccc(C(=O)Nc2ccc(Br)cn2)c1 | inactive |  |
| Cc1c(C(=O)N(C)c2ccccc2)nnn1-c1ccccc1F | inactive |  |
| COc1ccc(-c2cc(C)no2)cc1S(=O)(=O)NCCCN1CCCCCC1 | inconclusive: 50.1 µM [inhibitor, partial curve, poor fit] |  |
| Cc1ccc(-c2cc(C(=O)Nc3ccccc3C(N)=O)c3ccccc3n2)o1 | active: 6.31 µM |  |
| CCNS(=O)(=O)c1ccc(NC(=O)c2cc(C(F)(F)F)nn2C)cc1 | inconclusive: 6.31 µM [inhibitor, full curve, poor fit] |  |
| COC(=O)c1ccc(CSc2nnc(CNC(=O)c3cccs3)o2)o1 |  | inconclusive: -36.5% [inhibitor] |
| Cc1[nH][nH]c(=O)c1N=Nc1ccc(Br)c(Cl)c1 | inconclusive: 7.08 µM [inhibitor, full curve, poor fit] |  |
| CCCOc1ccc(-c2nn(-c3ccccc3)cc2C2NC(=O)NC(C)=C2C(=O)OC)cc1C (configuration not stated) | inconclusive: 50.1 µM [inhibitor, partial curve, poor fit] |  |
| Cc1cc(C)cc(NC(=O)C2CCN(C(=O)[C@@H]3Cc4ccccc4CN3)CC2)c1 | inconclusive: 39.8 µM [inhibitor, partial curve, poor fit] |  |
| CCOC(=O)C(CC)/C(C)=N\NC(=O)c1ccccc1O (configuration not stated) | inactive |  |
| Cc1nc(NCCN2CCCC(C(N)=O)C2)c2cccnc2n1 (configuration not stated) | inconclusive: 7.94 µM [inhibitor, full curve, poor fit] |  |
| Cc1csc(NC(=O)c2[nH]c3c(c2C)C(=O)CC(C)(C)C3)n1 | inactive |  |
| CCOc1ccccc1CN1CCN(Cc2c[nH]c3ccccc23)CC1CCO (configuration not stated) | inactive |  |
| CCO[C@@H]1OC(C(=O)NC2CC2)=C[C@H](C(C)(C)C)[C@H]1CCCO | inconclusive: 50.1 µM [inhibitor, partial curve, poor fit] |  |

5 entries already listed, sorted by count of non-hydrogen atoms, largest number first:

| SMILES | Potency | activity change, negative = inhibition |
| --- | --- | --- |
| O=C(Nc1ccc(Br)cn1)c1cccc(C(=O)Nc2ccc(Br)cn2)c1 | inactive |  |
| CCNS(=O)(=O)c1ccc(NC(=O)c2cc(C(F)(F)F)nn2C)cc1 | inconclusive: 6.31 µM [inhibitor, full curve, poor fit] |  |
| COc1cc(/C=N/NC(=S)NCc2ccco2)cc(OC)c1OC | inconclusive: 50.1 µM [inhibitor, partial curve, poor fit] |  |
| Cc1csc(NC(=O)c2[nH]c3c(c2C)C(=O)CC(C)(C)C3)n1 | inactive |  |
| O=C(NNc1ccccc1C(F)(F)F)c1sccc1Br | active: 39.8 µM |  |

Following part:

| SMILES | Potency | activity change, negative = inhibition |
| --- | --- | --- |
| CC(C)CC(NC(c1ccccc1)(c1ccccc1)c1ccccc1)C(=O)O (configuration not stated) | inconclusive: 44.7 µM [inhibitor, full curve, poor fit] |  |
| Cc1ccc(S(=O)(=O)Nc2cc(=O)[nH]c(SCc3ccc(Cl)cc3)n2)cc1 | inconclusive: 100 µM [inhibitor, partial curve, poor fit] |  |
| COCCCNC(=O)C[C@H]1C[C@H](C(=O)N2CCOCC2)[C@@]2(CCC3CCCC3)c3[nH]c4cc(-c5ccco5)ccc4c3CCN2C1=O | inconclusive: 89.1 µM [inhibitor, partial curve, poor fit] |  |
| CC(C)(C)C(=O)N[C@H]1C[C@@H](Cc2cc(CN3CCN(c4ccccc4)CC3)on2)C1(C)C | inactive |  |
| COc1ccc(C(=O)NC(=S)Nc2ccc([N+](=O)[O-])cc2C)cc1OC | inconclusive: 12.6 µM [inhibitor, full curve, poor fit] |  |
| CCc1ccc(NC(=O)CC(C)(C)CC(=O)O)cc1 | inactive |  |
| CCOC(=O)c1c(C)[nH]sc1=S | inconclusive: 44.7 µM [inhibitor, partial curve, poor fit] |  |
| COCCC(=O)N[C@H]1CC[C@]2(C)CCC([C@H](C)C(=O)NCc3cc(F)cc(F)c3)[C@H](O)[C@H]2[C@@H]1C (some centres not stated) | inactive |  |
| CCOC(=O)C1CCN(Cc2ccc(F)cc2F)CC1 | inconclusive: 0.562 µM [inhibitor, full curve, poor fit] |  |
| FC(F)(F)C1(C(F)(F)F)C2C=CC(C2)N1c1ncccn1 (configuration not stated) | inactive |  |
| COc1cc(C(=O)Nc2ccc3oc(-c4ccccc4)nc3c2)cc(OC)c1OC | inactive |  |
| CCCC1NC(=O)c2cccnc2-n2c1nc1cc(C)cc(C)c1c2=O (configuration not stated) | inconclusive: 126 µM [inhibitor, single point] |  |
| Cc1ccc(C)c(NC(=O)N2CCC(Oc3ncccc3C(=O)N(C)C)C2)c1 (configuration not stated) | inactive |  |
| Cc1ccccc1CNC(=O)CCC[C@H]1NC[C@@H]2C[C@H]1CN(Cc1ccccc1)C2 | inconclusive: 35.5 µM [inhibitor, partial curve, poor fit] |  |
| COc1ccc(Cn2c(C3CCN(C(=O)Cc4ccc(Cl)cc4)CC3)n[nH]c2=O)cc1 | inconclusive: 31.6 µM [inhibitor, partial curve] |  |
| O=C1Nc2ccc(S(=O)(=O)Nc3ccccc3O)c3cccc1c23 | inconclusive: 39.8 µM [inhibitor, partial curve, poor fit] |  |
| N#CC1(C(=O)Nc2ccc(Br)cc2)CCCC1 | inconclusive: 100 µM [inhibitor, single point] |  |
| COc1cc(Cl)c(C)cc1NC(=O)CSc1ncc(S(=O)(=O)c2ccc(C(C)(C)C)cc2)c(=O)[nH]1 | inactive |  |
| Cn1c2ccccc2c2c(C(=O)N3CCN(c4ccc(F)cc4)CC3)cn(C3CCCCC3)c(=O)c21 | inconclusive: 112 µM [inhibitor, partial curve, poor fit] |  |
| COc1ccc(Cl)cc1C(=O)NC1CC(=O)N(c2ccc(F)cc2)C1 (configuration not stated) | inactive |  |
| CCn1c(SCc2nnc(C)o2)nc2sc(C)c(C)c2c1=O | inconclusive: 126 µM [inhibitor, single point] |  |
